14 molecules from patent publication US20240400677A1 can be followed below.

Numbering of substitutions follows the chain as printed. No constants are given. Whether binding was seen depends on the method and setting.

Sequences and labels used below:
B1: Antibody 39 (scFv, V domains shown)
VH: QVQLVQSGAEVKKPGASVKVSCKASGGTFSNYGFSWVRQAPGQGLEWMGWMSPSSGNTGYAQKFQGRVTMTRDTSTSTVYMELSSLRSEDTAVYYCARERSGSYFDYWGQGTLVTVSS
VL: EIVMTQSPATLSVSPGERATLSCRASQSVSSYLAWYQQKPGQAPRLLIYGTSTRATGIPARFSGSGSGTEFTLTISSLQSEDFAVYYCQQYGSLPFTFGQGTRLEIK
B2: Antibody 53 (scFv, V domains shown)
VH: QVQLVQSGAEVKKPGASVKVSCKASGHTFNNNYIHWVRQAPGQGLEWMGIINPSGGSTSYAQKFQGRVTMTRDTSTSTVYMELSSLRSEDTAVYYCARQIQDYGYYYYGMDVWGQGTTVTVSS
VL: B1 VL with S31K, G50A, T51I, T53A, T56A, G92Y, L94S, F96P, R103K, L104V
B3: Antibody 46 (scFv, V domains shown)
VH: QVQLVQSGAEVKKPGASVKVSCKASGYTFSSYAISWVRQAPGQGLEWMGWMDPNSGNTGYAQKFQGRVTMTRDTSTSTVYMELSSLRSEDTAVYYCARESSYYYDSSGYYPGWYFDLWGRGTLVTVSS
VL: DIQMTQSPSSLSASVGDRVTITCQASQDISNYLNWYQQKPGKAPKLLIYAASTLQTGVPSRFSGSGSGTDFTLTISSLQPEDFATYYCQQSYSTPWTFGPGTKVDIK
B4: Antibody 36 (scFv, V domains shown)
VH: QVQLVQSGAEVKKPGASVKVSCKASGYTFTDNYLHWVRQAPGQGLEWMGIIETSGGSTDYAQKFQGRVTMTRDTSTSTVYMELSSLRSEDTAVYYCARSFGGYSYDDAFDIWGQGTTVTVSS
VL: B3 VL with D28G, T53S, T56S, T94S, W96Y, P100Q, D105E
B5: Antibody 43 (scFv, V domains shown)
VH: QVQLVQSGAEVKKPGASVKVSCKASGGTFTSYDINWVRQAPGQGLEWMGWISAYNGHTNYAQNLQGRVTMTRDTSTSTVYMELSSLRSEDTAVYYCAREDSSWYFDLWGRGTLVTVSS
VL: DIQMTQSPSSLSASVGDRVTITCRASQSISSWLAWYQQKPGKAPKLLIYDASNLETGVPSRFSGSGSGTDFTLTISSLQPEDFATYYCQQSFSTPPTFGQGTKVEIK
B6: Antibody 47 (scFv, V domains shown)
VH: QVQLVQSGAEVKKPGASVKVSCKASGYTFTTYGISWVRQAPGQGLEWMGWMDPNSGSTGYAQKFQGRVTMTRDTSTSTVYMELSSLRSEDTAVYYCARGRGNSYYYYYMDVWGKGTTVTVSS
VL: DIQMTQSPSSLSASVGDRVTITCRASQRIGSYLNWYQQKPGKAPKLLIYGASNLQSGVPSRFSGSGSGTDFTLTISSLQPEDFATYYCQQANSFPFTFGPGTKVDIK
B7: Antibody 48 (scFv, V domains shown)
VH: QVQLVQSGAEVKKPGASVKVSCKASGYTFTSYYMHWVRQAPGQGLEWMGWMNPNSGNTGYAQKFQGRVTMTRDTSTSTVYMELSSLRSEDTAVYYCARDQMYSSYGMDVWGQGTTVTVSS
VL: B5 VL with Q27E, S30T, S31N, D50K, N53S, T56S, F92Y, S93G, P96Y
B8: Antibody 50 (scFv, V domains shown)
VH: QVQLVQSGAEVKKPGASVKVSCKASGYTFTGYYMHWVRQAPGQGLEWMGTINPSGGSTSYAQKFQGRVTMTRDTSTSTVYMELSSLRSEDTAVYYCVKGNGYYDLWGQGTLVTVSS
VL: B5 VL with A51T, E55Q, T56G, S91Y, F92D, T94F, P96W
B9: Antibody 52 (scFv, V domains shown)
VH: QVQLVQSGAEVKKPGASVKVSCKASGYTFTSYDINWVRQAPGQGLEWMGWISGYNGNTNYAQKFQGRVTMTRDTSTSTVYMELSSLRSEDTAVYYCARSFDWLLLLDYWGQGTLVTVSS
VL: B5 VL with S52T, N53T, T56S, S91Y, F92D, T94Y, P96W, V104L
B10: Antibody 51 (scFv, V domains shown)
VH: QVQLVQSGAEVKKPGASVKVSCKASGYTFTRYDINWVRQAPGQGLEWMGWMNPNSGNTGYAQKLQGRVTMTRDTSTSTVYMELSSLRSEDTAVYYCARERVGYCSSTSCLHPLDYWGQGTLVTVSS
VL: DIQMTQSPSSLSASVGDRVTITCRASQGIRNDLGWYQQKPGKAPKLLIYSASNLQSGVPSRFSGSGSGTDFTLTISSLQPEDFATYYCQQSYDVPLTFGGGTKVEIK
B11: Antibody 35 (scFv, V domains shown)
VH: QVQLVQSGAEVKKPGASVKVSCKASGYTFTSYYIHWVRQAPGQGLEWMGTINPSGGSTSYAQKFQGRVTMTRDTSTSTVYMELSSLRSEDTAVYYCARETSRWLRDYYYGMDVWGQGTTVTVSS
VL: DIVMTQSPLSLPVTPGEPASISCRSSQSLLHSNGYNYLDWYLQKPGQSPQLLIYDASSLESGVPDRFSGSGSGTDFTLKISRVEAEDVGVYYCMQGTHWPLTFGGGTKVEIK
B12: Antibody 41 (scFv, V domains shown)
VH: QVQLVQSGAEVKKPGSSVKVSCKASGGTFSNYAISWVRQAPGQGLEWMGGIIPIFGSTASYAQKFQGRVTITADESTSTAYMELSSLRSEDTAVYYCARGVGDDTLTDWGQGTLVTVSS
VL: B11 VL with D55A, E60Q, G96A, T97L, H98Q, W99T
B13: Antibody 84 (antibody, V domains shown)
VH: QVQLVQSGAEVKKPGASVKVSCKASGYTFTSYYMHWVRQAPGQGLEWMGWINPNSGNAGFAQKFQGRVTMTRDTSTSTVYMELSSLRSEDTAVYYCARGPVYSYGPFDYWGQGTLVTVSS
VL: B3 VL with Q24R, D28G, N31T, N34A, T56S, Y92H, T94A, W96I, P100Q, D105E
B14: Antibody 83 (antibody, V domains shown)
VH: QVQLVQSGAEVKKPGASVKVSCKASGYSFSDYYMHWVRQAPGQGLEWMGWMSPNSGNTGYAQKFQGRVTMTRDTSTSTVYMELSSLRSEDTAVYYCARQREEYGHYYYGMDVWGQGTMVTVSS
VL: EIVMTQSPATLSVSPGERATLSCRASQSLGSTYLAWYQQKPGQAPRLLIYGASTRATGIPARFSGSGSGTEFTLTISSLQSEDFAVYYCQQYYSSPPTFGQGTKVEIK

The first test deals with cynomolgus monkey SIRPβ1-His monomer protein (cynomolgus monkey). Kind of test: BLI. Background: Biolayer interferometry detects binding as a change in optical thickness at a sensor tip.
Regarding B1, the binding entry is on record as “no binding (tested: <0.02 nm at 115 s)”.
Still for that read-out and setting: as for B2, the entry is “no binding (tested: <0.02 nm at 115 s)”; as for B3, “no binding (tested: <0.02 nm at 115 s)”.
For the molecule B4, the binding entry was “no binding (tested: <0.02 nm at 115 s)”.
Still for that read-out and setting: as for B5, the entry is “no binding (tested: <0.02 nm at 115 s)”.
Still for that read-out and setting: the result for B6 reads “no binding (tested: <0.02 nm at 115 s)”; that for B7, “no binding (tested: <0.02 nm at 115 s)”; that for B8, “no binding (tested: <0.02 nm at 115 s)”.
Consider B9, for which the binding entry was “no binding (tested: <0.02 nm at 115 s)”.
Still for that read-out and setting: as for B10, the entry is “no binding (tested: <0.02 nm at 115 s)”.
On the same count and under the same terms, the result for B11 reads “no binding (tested: <0.02 nm at 115 s)”; that for B12, “no binding (tested: <0.02 nm at 115 s)”.

The target in the next test is Human SIRPβ1 (plate-coated extracellular domain) (Homo sapiens). Kind of test: ELISA, coated SIRP ECD (2 µg/mL), anti-human IgG, luminescence.
Turning to B13, the binding result is reported as “no binding (tested: about 60 µg/mL)”.
Same read-out and setting: as for B14, the entry is “no binding (tested: about 60 µg/mL)”.
